Source: patent publication US7288256B1 (Merck Patent GmbH, priority 1991, dated 2007)
No end group written: not given here.

Test: peptide synthesis
Conditions: whole synthesis

In the case of DKQLEAVFEANQNTKTAKIEIKASIDE, the difficulty met was “it was very difficult to synthesize”.
